Reference: patent US20200129570A1, “Specific Bacterial Species and Metabolite That Improves Immune Checkpoint Inhibitor Therapy Efficacy” (BOARD OF REGENTS, THE UNIVERSITY OF TEXAS SYSTEM, priority 2017, published 2020)

Experiment: Non-targeted UHPLC/MS metabolomics of fecal samples (Metabolon), responders vs progressive disease
Design: species or system human

Row | Compound | fecal metabolite level in responders vs non-responders (P responders) | fecal metabolite level in responders (ICT responders) | fecal metabolite level in responders vs non-responders (IN responders)
1 | N=C(N)NCCC[C@H](N)C(=O)O [arginine] | increased levels | – | –
2 | CCCCCCCCCCCCCCCc1cccc(O)c1C(=O)O [anacardic acid] | – | high levels | increased levels
